Data: the supplement of paper PMC12024529
Structures can show the parent of a compound that is named as a salt. The list shows a part of the results. Baselines shift from plate to plate; read single values as rough.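 Wild-type or misfolding-prone missense mutant B-domain-deleted factor VIII, fused to Gaussia luciferase, is stably expressed in HEK293 lines. Each score is (mean triplicate-well luminescence minus DMSO mean) divided by DMSO standard deviation. Hits score at least 2; lower scores could stem from decreased secretion or poorer cell viability.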

Each compound was assayed on HEK293 p.N1941S BDD-FVIII-Gluc (assay: secreted FVIII-Gluc luciferase Z-score vs DMSO control; higher = more FVIII-Gluc secretion). Conditions: 5 µM; 24 h.

Secreted FVIII-Gluc luciferase Z-score, inactive:
O=C1Cc2cc(CCN3CCN(c4nsc5ccccc45)CC3)c(Cl)cc2N1 [Ziprasidone hydrochloride] -1.6, CC(=O)OCC[N+](C)(C)C [Acetylcholine chloride] -0.334, COc1ccc2cc1Oc1ccc(cc1)C[C@H]1c3c(cc4c(c3Oc3cc5c(cc3OC)CCN(C)[C@@H]5C2)OCO4)CCN1C [Cepharanthine] -1.2, OC[C@@H](O)[C@@H](O)[C@H](O)[C@H](O)CO [D-Mannitol (Osmitrol)] -0.793, Cc1cc(C2CCCCC2)n(O)c(=O)c1 [Ciclopirox (Penlac)] -3.4, C[C@@H]1C[C@H]2[C@@H]3CCC4=CC(=O)C=C[C@]4(C)[C@@]3(Cl)[C@@H](O)C[C@]2(C)[C@@]1(OC(=O)c1ccco1)C(=O)CCl [Mometasone furoate] 1.37, CC1CCc2c(N3CCC(O)CC3)c(F)cc3c(=O)c(C(=O)O)cn1c23 (stereo unspecified) [Nadifloxacin] 0.000769, CC(=O)Oc1cc2c(s1)CCN(C(C(=O)C1CC1)c1ccccc1F)C2 (stereo unspecified) [Prasugrel (Effient)] -1.04, CC(C)CN(C[C@@H](O)[C@H](Cc1ccccc1)NC(=O)O[C@H]1CCOC1)S(=O)(=O)c1ccc(N)cc1 [Amprenavir (Agenerase)] 0.917, CCn1cc(C(=O)O)c(=O)c2ccc(C)nc21 [Nalidixic acid (NegGram)] -0.704, S=c1[nH]cnc2nc[nH]c12 [Mercaptopurine] -1.33
